Test results reported in article PMC5458251.
No constants are given. Whether binding was seen depends on the method and setting. In cells and extracts the contact can be indirect. Some entries that bind do so weakly or less than the wild type. For some of these results: Where a sequence is shown, tags or fusion partners need not be part of it. One block for each molecule: values may come before it.

Chains of the proteins cited; added tags and fusions are not shown. Lines headed by an entry give the natural chain unless they say otherwise; changes in a name come on top.
UniProt Q16665: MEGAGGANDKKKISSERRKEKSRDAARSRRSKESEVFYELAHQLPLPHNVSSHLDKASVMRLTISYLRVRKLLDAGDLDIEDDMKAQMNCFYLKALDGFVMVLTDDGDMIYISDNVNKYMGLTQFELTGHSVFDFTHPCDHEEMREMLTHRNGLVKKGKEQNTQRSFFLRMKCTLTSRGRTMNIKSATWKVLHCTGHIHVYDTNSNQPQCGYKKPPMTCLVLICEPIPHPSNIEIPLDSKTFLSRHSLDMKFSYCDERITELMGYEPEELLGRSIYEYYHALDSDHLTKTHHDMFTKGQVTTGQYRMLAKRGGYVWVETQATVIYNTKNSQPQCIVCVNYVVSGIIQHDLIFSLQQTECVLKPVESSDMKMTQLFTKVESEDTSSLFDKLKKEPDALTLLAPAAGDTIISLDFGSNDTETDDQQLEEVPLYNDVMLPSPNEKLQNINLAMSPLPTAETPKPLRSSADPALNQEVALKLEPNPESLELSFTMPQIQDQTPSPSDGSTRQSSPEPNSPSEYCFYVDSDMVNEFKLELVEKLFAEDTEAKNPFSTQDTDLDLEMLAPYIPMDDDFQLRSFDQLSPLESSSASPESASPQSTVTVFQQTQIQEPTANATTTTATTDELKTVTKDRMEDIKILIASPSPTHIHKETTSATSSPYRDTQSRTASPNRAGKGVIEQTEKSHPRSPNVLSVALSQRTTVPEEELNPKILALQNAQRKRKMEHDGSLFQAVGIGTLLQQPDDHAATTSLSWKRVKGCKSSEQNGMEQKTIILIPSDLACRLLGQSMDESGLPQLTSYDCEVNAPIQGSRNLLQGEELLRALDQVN

Experiments:
[1] = target: T1, SEPT9_i1-YN (split-YFP chimera: septin 9 isoform 1 with EE tag, linker and N-terminal YFP fragment on its C-terminus) (human) (UniProt Q9UHD8); experiment: split reporter; split YFP (YN/YC) in live PC-3 cells, transient co-transfection with 10-fold more HIF-1α plasmid than SEPT9_i1 plasmid, confocal imaging 48 h after transfection; cells treated overnight with 250 μM CoCl2, 100 μM DBM, DBM with 1 μM 17-AAG or 150 μM FCF, or 0.01% DMSO
T1 sequence: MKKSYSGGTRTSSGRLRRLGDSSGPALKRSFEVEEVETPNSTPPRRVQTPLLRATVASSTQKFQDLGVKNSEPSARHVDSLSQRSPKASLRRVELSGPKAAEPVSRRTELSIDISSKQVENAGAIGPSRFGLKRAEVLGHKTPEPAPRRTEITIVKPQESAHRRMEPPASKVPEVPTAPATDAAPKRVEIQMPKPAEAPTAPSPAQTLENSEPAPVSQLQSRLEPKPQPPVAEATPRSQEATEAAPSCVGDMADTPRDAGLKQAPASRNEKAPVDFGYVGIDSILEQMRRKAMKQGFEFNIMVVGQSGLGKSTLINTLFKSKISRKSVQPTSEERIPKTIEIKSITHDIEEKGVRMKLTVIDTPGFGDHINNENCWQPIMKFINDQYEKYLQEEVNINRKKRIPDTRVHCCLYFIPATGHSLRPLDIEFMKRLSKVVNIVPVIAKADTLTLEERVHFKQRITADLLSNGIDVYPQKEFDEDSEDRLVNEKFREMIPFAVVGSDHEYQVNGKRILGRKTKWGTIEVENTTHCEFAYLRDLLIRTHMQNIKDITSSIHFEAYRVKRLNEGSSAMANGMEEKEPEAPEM

[2] = target: T1, SEPT9_i1-YN (split-YFP chimera: septin 9 isoform 1 with EE tag, linker and N-terminal YFP fragment on its C-terminus) (human); experiment: split reporter; split YFP in live PC-3 cells, YC-HIF-1α and SEPT9_i1-YN transiently co-expressed with the SEPT9_i1 252-379aa fragment or its empty vector; 100 μM DBM or 0.01% DMSO overnight
[3] = target: T1, SEPT9_i1-YN (split-YFP chimera: septin 9 isoform 1 with EE tag, linker and N-terminal YFP fragment on its C-terminus) (human); experiment: split reporter; split YFP in live PC-3 cells stably transfected with SEPT9_i1-YN and Tet-On inducible YC-HIF-1α (clone #23); 1 μg/ml Dox, 100 μM DBM or 0.01% DMSO
[4] = target: YC-HIF-1α (split-YFP chimera: C-terminal YFP fragment, linker and HA tag on the N-terminus of hypoxia-inducible factor 1α) (human) (UniProt Q16665); experiment: split reporter; split YFP in live PC-3 cells, YC-HIF-1α and SEPT9_i1-YN transiently co-expressed with the SEPT9_i1 252-379aa fragment or its empty vector; 100 μM DBM or 0.01% DMSO overnight

binding [1]: binds
binding [2]: binds
binding [3]: binds
Molecule: YC-HIF-1α (split-YFP chimera: C-terminal YFP fragment, linker and HA tag on the N-terminus of hypoxia-inducible factor 1α) (from UniProt Q16665 1-826)

binding [4]: binds
B1: SEPT9_i1 252-379aa fragment (domain or fragment, UniProt Q9UHD8 252-379)
chain: MADTPRDAGLKQAPASRNEKAPVDFGYVGIDSILEQMRRKAMKQGFEFNIMVVGQSGLGKSTLINTLFKSKISRKSVQPTSEERIPKTIEIKSITHDIEEKGVRMKLTVIDTPGFGDHINNENCWQPI
